Experimental data from the supplement of paper PMC12823440, “Inhibitors supercharge kinase turnover through native proteolytic circuits” (Nature, 2025).
Structures can show the parent of a compound that is named as a salt. The list shows a part of the results. The calls rarely recur for the same compound in another form.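 Kinases, fused to nanoluciferase, were expressed in K562 cells; luminescence was measured every 4 h from 2 to 18 h as percent of control (DMSO = 100%, positive control = 0%). A time point is decreased if signal falls significantly (2 sigma). Hits were called by the authors by a rule that is not shown; the count of time points alone does not decide it.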

The chains behind the UniProt entries cited, without tags or fusion partners.
UniProt Q15303, whole entry R711C: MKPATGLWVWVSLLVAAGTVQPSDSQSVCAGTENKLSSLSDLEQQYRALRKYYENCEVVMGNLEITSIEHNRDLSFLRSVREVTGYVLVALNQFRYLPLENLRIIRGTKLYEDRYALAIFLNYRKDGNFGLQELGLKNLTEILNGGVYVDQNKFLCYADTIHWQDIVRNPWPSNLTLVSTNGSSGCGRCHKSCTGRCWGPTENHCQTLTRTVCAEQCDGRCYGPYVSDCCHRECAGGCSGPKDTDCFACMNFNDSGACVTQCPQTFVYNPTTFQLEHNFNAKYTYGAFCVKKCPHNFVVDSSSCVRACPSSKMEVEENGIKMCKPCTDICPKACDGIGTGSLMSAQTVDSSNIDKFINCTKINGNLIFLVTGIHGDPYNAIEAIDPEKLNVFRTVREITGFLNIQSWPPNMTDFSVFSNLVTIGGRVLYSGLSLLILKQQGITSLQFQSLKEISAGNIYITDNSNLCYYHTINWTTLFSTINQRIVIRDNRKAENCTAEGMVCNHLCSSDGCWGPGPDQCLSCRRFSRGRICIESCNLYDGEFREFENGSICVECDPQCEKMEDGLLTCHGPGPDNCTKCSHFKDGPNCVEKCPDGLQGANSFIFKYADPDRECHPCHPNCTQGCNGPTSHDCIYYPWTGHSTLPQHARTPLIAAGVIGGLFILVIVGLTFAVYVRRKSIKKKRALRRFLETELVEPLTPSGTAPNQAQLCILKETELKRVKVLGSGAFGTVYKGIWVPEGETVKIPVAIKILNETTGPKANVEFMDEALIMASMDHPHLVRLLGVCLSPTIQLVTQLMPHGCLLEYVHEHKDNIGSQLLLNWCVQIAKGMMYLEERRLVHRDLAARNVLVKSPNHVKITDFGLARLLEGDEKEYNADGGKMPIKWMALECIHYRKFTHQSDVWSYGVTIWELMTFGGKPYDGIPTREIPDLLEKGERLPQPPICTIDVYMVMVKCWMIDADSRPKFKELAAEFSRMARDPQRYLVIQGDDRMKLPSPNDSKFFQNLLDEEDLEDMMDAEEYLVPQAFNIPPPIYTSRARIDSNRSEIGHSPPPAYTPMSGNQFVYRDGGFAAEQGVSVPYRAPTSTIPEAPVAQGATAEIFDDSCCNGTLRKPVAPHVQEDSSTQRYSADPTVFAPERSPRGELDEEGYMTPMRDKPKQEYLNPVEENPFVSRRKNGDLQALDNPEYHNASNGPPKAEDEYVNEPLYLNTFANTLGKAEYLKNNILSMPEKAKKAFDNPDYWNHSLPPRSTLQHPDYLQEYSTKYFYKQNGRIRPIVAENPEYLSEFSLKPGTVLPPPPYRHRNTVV

What follows are compounds tested against ERBB4_R711C (clone: ERBB4_mut) (UniProt Q15303) (assay: number of time points (of 5) at which kinase-Nluc abundance scored as decreased, DMSO-normalised (count); higher = more persistent destabilization). Details: K562; 2-18 h.

| Compound | number of time points |
| --- | --- |
| CN1CC[C@H](c2c(O)cc(O)c3c(=O)cc(-c4ccc(C(F)(F)F)cc4Cl)oc23)[C@H]1CO [(2S,3R)-Voruciclib (hydrochloride)] (2.5 µM) | 0 |
| CCn1nc(C2CCN(C(=O)CCO)CC2)nc1-c1cnc(N)c(-c2nnc(C(C)(C)C)o2)n1 (10 µM) | 0 |
| O=C(O)c1ccccc1Nc1cccc(C(F)(F)F)c1 [Flufenamic acid] (10 µM) | 0 |
| CNC(=O)c1ccc(-c2cnc3cnc(-c4ccccc4)cn23)cc1 (10 µM) | 0 |
| Nc1cccc(S(=O)(=O)N2CCCN(S(=O)(=O)c3ccc4c(c3)OCCO4)CC2)c1 (10 µM) | 0 |
| CC1(COc2ccc3c(c2)ncn3-c2ccc3cccc(N4CCC(N)CC4)c3n2)COC1 [Crenolanib] (2.5 µM) | 0 |
| O=C(CCCCCn1cc(Nc2ncc(Cl)c(Nc3ccc(Cl)cc3)n2)cn1)NO (2.5 µM) | 0 |
| CC(C)n1cnc2c(Nc3cccc(Cl)c3)nc(NCCO)nc21 (10 µM) | 0 |
| COc1ccc(CCNc2ncc3c(=O)n(-c4cccc(F)c4)c(=O)[nH]c3n2)cc1OC (2 µM) | 0 |
| OCCN(CCO)c1ccc(C(c2ccc(Cl)cc2)c2ccc(N(CCO)CCO)cc2)cc1 (10 µM) | 4 |
| CSc1ccc(CN2CCCC(Nc3ccc4[nH]ncc4c3)C2)cc1 (centres undefined) [Rho-Kinase-IN-1] (10 µM) | 0 |
| COc1cc(C(=O)N2CCC(N3CCN(C)CC3)CC2)ccc1Nc1ncc2c(n1)N(C)c1ccccc1C(=O)N2C (10 µM) | 0 |
| CC(C)c1cc(/C=C(\C#N)C(N)=O)cc(C(C)C)c1O (10 µM) | 0 |
| CCCNC(=O)c1cn2ncnc(Nc3cc(C(=O)NC4CC4)ccc3C)c2c1C (10 µM) | 0 |
| COc1ccc2c(c1OC)OC1c3ccc(O)cc3OCC21 (centres undefined) [Methylnissolin] (10 µM) | 0 |
| CN(CC(=O)N(Cc1ccc(C2CCCCC2)cc1)c1ccc(C(=O)O)c(O)c1)S(=O)(=O)c1c(F)c(F)c(F)c(F)c1F (2.5 µM) | 0 |
| CCCCNC(=N)NC(=N)N [Buformin (hydrochloride)] (2.5 µM) | 0 |
| O=C1NCCCc2c1oc1ccc(O)cc21 (10 µM) | 0 |
| c1ccc(-c2oc3ncnc(NC[C@@H]4CCCO4)c3c2-c2ccccc2)cc1 (2.5 µM) | 0 |
| CC(=O)Nc1nc2ccc(-c3cnc(C)c(NC(=O)OC4CCCCC4)c3)cc2s1 (10 µM) | 0 |

| Compound | number of time points |
| --- | --- |
| CCOc1ccccc1C=C1C(=O)Nc2ccccc21 (10 µM) | 2 |
| Cc1ccc(-c2nn(C(C)(C)CNC(=O)c3ccncc3)c3ncnc(N)c23)cc1 (2.5 µM) | 0 |
| CC[C@H](Nc1ncnc2[nH]cnc12)c1oc2ccccc2c(=O)c1-c1cccc(F)c1 [Tenalisib] (10 µM) | 0 |
| CC(C)(C)C(=O)N1N=CC[C@H]1c1ccccc1 (10 µM) | 0 |
| COC1(C(=O)N[C@@H](C)c2ccc(-n3cc(F)cn3)nc2)CCC(c2nc(C)cc(Nc3cc(C)[nH]n3)n2)CC1 (stereo partly drawn) [trans-Pralsetinib] (2.5 µM) | 0 |
| CN(C)Cc1cccc(N=C(c2ccccc2)c2c(O)[nH]c3cc(C(N)=O)ccc23)c1 (10 µM) | 0 |
| COc1nc(-c2ccnc(NC(=O)C3CC3)c2)sc1C(N)=O [GSK-3β inhibitor 2] (10 µM) | 4 |
| C=C[C@H]1[C@H](O[C@@H]2O[C@H](CO)[C@@H](O)[C@H](O)[C@H]2OC(=O)c2c(O)cc(O)cc2-c2cccc(O)c2)OC=C2C(=O)OCC[C@H]21 [Amarogentin] (10 µM) | 0 |
| COc1cc(C(C)=O)cc(OC)c1O [Acetosyringone] (10 µM) | 0 |
| O=C(O)CCc1ccc(NCc2cccc(Oc3ccccc3)c2)cc1 (10 µM) | 0 |
| Cc1cc(C(C)Nc2ccccc2)c2nc(N3CCOCC3)cc(=O)n2c1 (centres undefined) (10 µM) | 0 |
| O=C(O)c1ccc(-c2c[nH]c3ncc(-c4ccccc4)cc23)cc1C1CCCC1 (2.5 µM) | 0 |
| CC1=C(CC(=O)O)c2cc(F)ccc2/C1=C\c1ccc(C(C)C)cc1 (10 µM) | 0 |
| COc1cc(N2CCC(N(C)C)CC2)ccc1Nc1ncc(Cl)c(Nc2ccccc2P(C)(C)=O)n1 (2.5 µM) | 0 |
| Cc1ccc(-c2ccc3c(ccc4sc5c(c43)NC[C@@H](C)NC5=O)n2)cn1 (10 µM) | 0 |
| Nc1cc(C(F)F)c(-c2nc(N3C4CCC3COC4)nc(N3C4CCC3COC4)n2)cn1 (2.5 µM) | 0 |
| O=c1cc(-c2ccc(O)c(O)c2O)oc2ccccc12 (10 µM) | 0 |
| CC(C)c1ccc(CC(=O)N2CCN(c3ccc(C#N)nn3)CC2)cc1 (10 µM) | 0 |
| CN(C)Cc1cccc(N=C(c2ccccc2)c2c(O)[nH]c3cc(C(=O)N(C)C)ccc23)c1 (10 µM) | 0 |

Sorted by SMILES length (smallest number first): 3 of the compounds above

| Compound | number of time points |
| --- | --- |
| COc1nc(-c2ccnc(NC(=O)C3CC3)c2)sc1C(N)=O [GSK-3β inhibitor 2] (10 µM) | 4 |
| CN(C)Cc1cccc(N=C(c2ccccc2)c2c(O)[nH]c3cc(C(N)=O)ccc23)c1 (10 µM) | 0 |
| COc1cc(N2CCC(N(C)C)CC2)ccc1Nc1ncc(Cl)c(Nc2ccccc2P(C)(C)=O)n1 (2.5 µM) | 0 |
